Hit rate of the full screen: of about 140,000 compounds, about 4,300 (3.1%) were called active. The shares of active, inactive and inconclusive entries below differ from those in the screen.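 Rule for the calls: active = readout at or below -70, meaning at least 70% loss of cells showing the perinucleolar compartment, a nuclear body marking cancer cells; inconclusive = readout between -30 and a set limit; inactive = the rest.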
assay: High Content Assay for Compounds that inhibit the Assembly of the Perinucleolar Compartment; settings: PC3M PTB-GFP, PNC prevalence imaging, 16 h; at 10 µM; stronger effect = lower value;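 note: plate controls were DMSO wells for no effect and camptothecin positive control wells for full effect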
In short: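 Compounds are pinned in duplicate onto adhered PC3M cells stably expressing GFP-tagged PTB and incubated 16 h at 37 C. Cells are then fixed, nuclei stained with Hoechst, and PNC-positive cells counted.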

| Structure (SMILES) | activity change (PNC), negative = inhibition |
| --- | --- |
| COCC(=O)N(Cc1cc2cc(OC)ccc2[nH]c1=O)c1ccccc1OC | inconclusive: -64.2% |
| CCOC(=O)CSc1nc2cc(C(=O)NCc3ccco3)ccc2c(=O)n1-c1ccc(F)cc1 | inconclusive: -44.2% |
| O=C(CNS(=O)(=O)c1ccc2ccccc2c1)OCc1csc(-c2ccccc2)n1 | inconclusive: -54.1% |
| O=C(COc1cccc(Cl)c1)N/N=C\c1cc2ccccc2nc1Cl | inactive: -1.54% |
| COc1cccc(-n2c(CN3CCN(Cc4ccccc4)CC3)nc3ccc([N+](=O)[O-])cc3c2=O)c1 | inconclusive: -34.4% |
| CCOC(=O)CNS(=O)(=O)c1cc(-c2nn(C)c(=O)c3ccccc23)ccc1C | inconclusive: -37.6% |
| COc1cc(CNCc2ccccn2)ccc1OCC(=O)NC1CCCCC1 | inconclusive: -45.2% |
| O=C(Cc1c(Sc2ccccc2)c2ccccc2n1Cc1ccccc1)NCCO | inconclusive: -48.6% |
| CCc1[nH]nc2c1C1(C(=O)N(Cc3ccccc3)c3ccccc31)C(C#N)=C(N)O2 (stereo unspecified) | inactive: 47.9% |
| Cc1ccc2nsnc2c1NC(=O)c1cccnc1Cl | inactive: 34.1% |
| CCOC(=O)N1CCN(C(=O)COc2cccc3c2CCN(Cc2ccc(F)cc2)C3=O)CC1 | inconclusive: -31% |
| COc1ccc2nc(/N=C/c3c(C)[nH]n(-c4ccc(C)cc4)c3=O)sc2c1 | inactive: 74.4% |
| Cc1ccc(C2C=C(c3ccccc3OC(F)F)Nc3ncnn32)cc1 (stereo unspecified) | inconclusive: -34.1% |
| COc1ccc(C2C(C(=O)c3sc(C)nc3C)=C(O)C(=O)N2CCN(C)C)cc1OC (stereo unspecified) | active: -122% |
| CCOC(=O)c1[nH]c(=O)[nH]c1CSCCO | inconclusive: -36.2% |
| COc1ccc(Nc2oc(COc3ccc(C)cc3)nc2C#N)cc1 | active: -100% |
| Cc1nc(SCC(=O)c2cccc([N+](=O)[O-])c2)n[nH]1 | inactive: 4.67% |
| Cn1c(=O)c2c(nc(N3CCCCCC3)n2CC(=O)c2ccccc2)n(C)c1=O | inactive: 54.7% |
| O=C(N/N=C1\CCc2ccccc21)c1ccccc1O | inconclusive: -43.4% |
| COCC(=O)Nc1ccccc1C(=O)NC(C)C | inconclusive: -74.6% |
| CC(C)NC(=S)Nc1ccc2cn[nH]c2c1 | inactive: -21.2% |
| CC(=O)Nc1sc(N/N=C\c2ccccc2F)nc1-c1cccs1 | inconclusive: -53.6% |
| C=CCNC(=O)CCCCC(=O)NCC=C | inconclusive: -55.3% |

Taken from above:
`CCOC(=O)c1[nH]c(=O)[nH]c1CSCCO` | activity change (PNC), negative = inhibition: inconclusive: -36.2%
`CC(=O)Nc1sc(N/N=C\c2ccccc2F)nc1-c1cccs1` | activity change (PNC), negative = inhibition: inconclusive: -53.6%
`COCC(=O)Nc1ccccc1C(=O)NC(C)C` | activity change (PNC), negative = inhibition: inconclusive: -74.6%

Next entries.

| Structure (SMILES) | activity change (PNC), negative = inhibition |
| --- | --- |
| O=C(NNC(=O)c1cccnc1SCc1cccc([N+](=O)[O-])c1)c1ccc(F)cc1 | active: -87.3% |
| O=S(=O)(c1ccc(Cl)cc1)N1CCC(N2CCOCC2)CC1 | inconclusive: -60.1% |
| O=C(COC(=O)c1ccc2ccccc2c1)Nc1ncc(C(F)(F)F)cc1Cl | inactive: 4.48% |
| COc1ccc2c(c1)CC/C(=C/c1ccncc1)C2=O | inconclusive: -75% |
| COc1ccccc1C(=O)NCCn1ccc2ccccc21 | inconclusive: -40.4% |
| CC(=O)Nc1ccc(/C(C)=N/NC(=O)c2ccc(F)cc2)cc1 | inactive: -17.6% |
| CCOCCn1c(SCc2ccc(F)cc2)nc2c1c(=O)[nH]c(=O)n2C | inactive: 14.6% |
| Cc1cc2c(=O)n(Cc3ccco3)c(SCC(=O)c3ccc(Cl)s3)nc2s1 | inconclusive: -67.9% |
| CCOC(=O)C(NC(=O)c1cccc(Cl)c1)(OCc1ccc(F)cc1)C(F)(F)F (stereo unspecified) | inconclusive: -47% |
| CC1Cc2ccccc2N1C(=O)C1CCN(S(=O)(=O)c2cccs2)CC1 (stereo unspecified) | inconclusive: -47.2% |
| Cc1ccccc1Cn1c(=O)n(Cc2ccco2)c(=O)c2ccccc21 | inconclusive: -39.4% |
| C/C(Cn1nc([N+](=O)[O-])cc1C)=N\NC(=O)COc1ccccc1[N+](=O)[O-] | inconclusive: -68.4% |
| CCOC(=O)C1CCN(S(=O)(=O)c2ccc(C)cc2)CC1 | inconclusive: -47.9% |
| O=C(Nc1nc2ccccc2[nH]1)c1ccc(Cl)c(S(=O)(=O)N2CCCC2)c1 | inconclusive: -54.6% |
| C/C(CC(=O)Nc1ccc(Cl)cc1)=N\NC(=O)C(=O)NCCO | active: -81.9% |
| COc1ccc(C(c2c(O)cc(C)oc2=O)c2c(O)cc(C)oc2=O)cc1 | inconclusive: -62.3% |
| COc1ccc(C(C)NC(=O)c2ccc([N+](=O)[O-])cc2)cc1OC (stereo unspecified) | inconclusive: -36.7% |
| CCCNC(=O)NC(=O)CSc1nc2cc(C(=O)OC)ccc2c(=O)n1-c1ccccc1 | inconclusive: -34.9% |
| N#C/C(=C\c1ccc(Br)s1)C(=O)N1CCN(c2ccccc2)CC1 | inconclusive: -68.7% |
| COc1ccccc1N1CCN(Cc2cccs2)CC1 | inconclusive: -59.3% |
| COC(=O)c1c(NC(C)=O)sc(Cc2ccccc2)c1C | inactive: 52% |
| CC(=O)[C@H]1CC[C@H]2[C@@H]3CCC4=CC(=O)CC[C@]4(C)[C@H]3[C@H](O)C[C@]12C | inconclusive: -52.6% |
| Cc1noc(C)c1C(=O)N1CCN(C(=O)c2sc3cc(Cl)ccc3c2Cl)CC1 | inconclusive: -35.4% |

| Structure (SMILES) | activity change (PNC), negative = inhibition |
| --- | --- |
| C=CCN(CC=C)S(=O)(=O)c1ccc2nc(NC(=O)C(C)C)sc2c1 | inconclusive: -51.5% |
| C=CCNC(=S)NNC(=O)c1ccc(OC(C)C)cc1 | active: -90.6% |
| CCOc1ccc(NC(=O)C(Cc2ccccc2)NC(=O)C2CCCCC2)cc1 (stereo unspecified) | inactive: -21.3% |
| CCCC(=O)Nc1nc2nc(-c3ccccc3)cc(-c3ccccc3)n2n1 | inconclusive: -54.7% |
| Cc1ccc2cc(C#N)c(N3CCCC3)nc2c1C | inconclusive: -32.4% |
| COc1ccc(CNC(=O)c2csc(Cc3ccc(Cl)cc3)n2)cc1 | active: -106% |
| CCOC(=O)c1c(NC(=O)CSc2nnc(-c3ccncc3)n2Cc2ccco2)sc(C)c1C | inconclusive: -47.6% |
| O=C(NC(=S)N1CCN(c2ccc(Cl)cc2[N+](=O)[O-])CC1)c1cccs1 | active: -112% |
| Cc1cc2ccccc2n1CCNC(=O)c1ccccc1 | inactive: 67.7% |
| Cc1cc(Nc2cccc(Cl)c2)nc(NCc2ccccc2)n1 | active: -94.1% |
| COC(=O)Nc1c(C)nn(Cc2ccccc2C)c1C | inconclusive: -50.7% |
| CCN=C1S/C(=C\c2cc(OCC)c(O)cc2Br)C(=O)N1CC | inconclusive: -38.1% |
| CSc1ccccc1C(=O)NC1CC2CCC1C2 (stereo unspecified) | inconclusive: -57.7% |
| CCNC(=O)COc1ccc2ccccc2c1 | inconclusive: -31.3% |
| COc1ccc(C2CC(=O)N3CN(c4ccccc4F)CSC3=C2C#N)cc1OC (stereo unspecified) | inactive: 15.5% |
| CCOC(=O)CC(=O)CSCC(=O)Nc1ccc(C)cc1 | inconclusive: -30.4% |
| O=C(CSc1c(Cl)cccc1Cl)N1CCC(c2nc3ccccc3s2)CC1 | inactive: 69.7% |
| CCOC(=O)c1[nH]cnc1C(=O)Nc1cccc(N)n1 | inconclusive: -58% |
| N#CC1=C(N)Oc2n[nH]c(-c3ccccc3)c2C1c1ccncc1 (stereo unspecified) | inconclusive: -50.8% |
| CCSc1cnn(-c2ccccc2)c(=O)c1SCC | inactive: 60.8% |
| CN(C)C=C1C(=O)c2ccccc2C1=O | inconclusive: -30.6% |
| Cc1ccccc1Cn1c(Cc2ccccc2)nc2ccccc21 | inconclusive: -43.5% |
| COc1ccc(C2C(C(=O)N3CCN(c4ccccc4)CC3)c3ccccc3C(=O)N2C)cc1 (stereo unspecified) | active: -100% |

Exported with tabs: part of the list above.
Structure (SMILES)	activity change (PNC), negative = inhibition
CCOc1ccc(NC(=O)C(Cc2ccccc2)NC(=O)C2CCCCC2)cc1 (stereo unspecified)	inactive: -21.3%
CCNC(=O)COc1ccc2ccccc2c1	inconclusive: -31.3%
O=C(CSc1c(Cl)cccc1Cl)N1CCC(c2nc3ccccc3s2)CC1	inactive: 69.7%

Following part

| Structure (SMILES) | activity change (PNC), negative = inhibition |
| --- | --- |
| COc1ccc(CCC(N)=O)cc1OC | inconclusive: -32.2% |
| C=CCc1ccccc1OCC(O)CN1CCN(C(=O)OCC)CC1 (stereo unspecified) | inconclusive: -31.2% |
| CCOc1ccccc1NC(=O)COC(=O)c1cccc(-c2ccc(OC(C)=O)cc2)c1 | inconclusive: -64.3% |
| Clc1ccc(CSc2nncn2-c2ccccn2)cc1 | inactive: 7.63% |
| CCOc1ccccc1NC(=O)CCC(=O)Nc1ccccc1OCC | inconclusive: -34.2% |
| Cc1nn(-c2ccccc2)c(C)c1NC(=O)COc1ccc(Br)cc1Cl | inactive: 13.2% |
| O=C1CSC(c2ccccc2)N1c1nnc(C23CC4CC(CC(C4)C2)C3)s1 (stereo unspecified) | inconclusive: -64.9% |
| CC1(CCc2ccccc2)NC(=S)N(c2ccccc2)N1 (stereo unspecified) | active: -124% |
| Cc1cc(C)nc(NS(=O)(=O)c2ccc(NC(=O)c3ccc(S(=O)(=O)N4CC(C)OC(C)C4)cc3)cc2)n1 (stereo unspecified) | inactive: -8.56% |
| CCOC(=O)CNC(=O)c1c(C)nn(-c2ccccc2)c1Cl | inconclusive: -52.3% |
| Cc1cc(C)c(C#N)c(OCC(=O)c2ccccc2)n1 | inconclusive: -45.4% |
| CC(Oc1ccc(Cl)cc1Cl)C(=O)NCCCCc1ccccc1 (stereo unspecified) | inconclusive: -31.3% |
| CCS(=O)(=O)n1nc(-c2ccco2)nc1SC | inactive: -6.89% |
| Cn1c(=O)c2c(O)c(Cc3ccccc3)c(=O)[nH]c2n(C)c1=O | inconclusive: -45.7% |
| Cc1ccc(CSc2nnc(-c3ccc4c(c3)OCO4)o2)cc1 | inactive: 5.9% |
| O=c1cc(CSc2nc(NCc3ccccc3)c3ccccc3n2)nc2ccc(Cl)cn12 | inactive: 6.93% |
| COc1cc(NC(=O)CCCC(=O)OCC(F)(F)C(F)F)nc(OC)n1 | inconclusive: -30% |
| Cc1ccc(C(=O)NCCc2nnc3ccc(SCC(=O)Nc4c(C)cc(C)cc4C)nn23)cc1 | inactive: -8.88% |
| CCCCCCn1cnc2c(c1=O)c1nc3ccccc3nc1n2Cc1cccs1 | inconclusive: -42.3% |
| CC1CCN(c2ccc(C(=O)O)cc2NS(=O)(=O)c2ccc(Br)cc2)CC1 | inconclusive: -43.6% |
| O=c1oc2ccccc2c(N2CCCC2)c1CN1CCCC1 | inconclusive: -43.6% |
| COc1ccc(N(CC(=O)NCc2cccnc2)S(=O)(=O)c2c(C)nn(C)c2C)cc1 | inconclusive: -41.9% |

Reference: PubChem BioAssay AID2417 (National Center for Advancing Translational Sciences (NCATS), 2010)
